Earlier results on 2 compounds are cited in patent publication US20230349886A1, “SYSTEMS AND METHODS FOR PREDICTING CARDIOTOXICITY OF MOLECULAR PARAMETERS OF A COMPOUND BASED ON MACHINE LEARNING ALGORITHMS” (UTI Limited Partnership, priority 2015, published 2023).

Protein sequences, listed by entry. Tags and fused reporters are not part of them. Residues count along the entry.
UniProt Q13936, 1-2138 isoform Q13936-12: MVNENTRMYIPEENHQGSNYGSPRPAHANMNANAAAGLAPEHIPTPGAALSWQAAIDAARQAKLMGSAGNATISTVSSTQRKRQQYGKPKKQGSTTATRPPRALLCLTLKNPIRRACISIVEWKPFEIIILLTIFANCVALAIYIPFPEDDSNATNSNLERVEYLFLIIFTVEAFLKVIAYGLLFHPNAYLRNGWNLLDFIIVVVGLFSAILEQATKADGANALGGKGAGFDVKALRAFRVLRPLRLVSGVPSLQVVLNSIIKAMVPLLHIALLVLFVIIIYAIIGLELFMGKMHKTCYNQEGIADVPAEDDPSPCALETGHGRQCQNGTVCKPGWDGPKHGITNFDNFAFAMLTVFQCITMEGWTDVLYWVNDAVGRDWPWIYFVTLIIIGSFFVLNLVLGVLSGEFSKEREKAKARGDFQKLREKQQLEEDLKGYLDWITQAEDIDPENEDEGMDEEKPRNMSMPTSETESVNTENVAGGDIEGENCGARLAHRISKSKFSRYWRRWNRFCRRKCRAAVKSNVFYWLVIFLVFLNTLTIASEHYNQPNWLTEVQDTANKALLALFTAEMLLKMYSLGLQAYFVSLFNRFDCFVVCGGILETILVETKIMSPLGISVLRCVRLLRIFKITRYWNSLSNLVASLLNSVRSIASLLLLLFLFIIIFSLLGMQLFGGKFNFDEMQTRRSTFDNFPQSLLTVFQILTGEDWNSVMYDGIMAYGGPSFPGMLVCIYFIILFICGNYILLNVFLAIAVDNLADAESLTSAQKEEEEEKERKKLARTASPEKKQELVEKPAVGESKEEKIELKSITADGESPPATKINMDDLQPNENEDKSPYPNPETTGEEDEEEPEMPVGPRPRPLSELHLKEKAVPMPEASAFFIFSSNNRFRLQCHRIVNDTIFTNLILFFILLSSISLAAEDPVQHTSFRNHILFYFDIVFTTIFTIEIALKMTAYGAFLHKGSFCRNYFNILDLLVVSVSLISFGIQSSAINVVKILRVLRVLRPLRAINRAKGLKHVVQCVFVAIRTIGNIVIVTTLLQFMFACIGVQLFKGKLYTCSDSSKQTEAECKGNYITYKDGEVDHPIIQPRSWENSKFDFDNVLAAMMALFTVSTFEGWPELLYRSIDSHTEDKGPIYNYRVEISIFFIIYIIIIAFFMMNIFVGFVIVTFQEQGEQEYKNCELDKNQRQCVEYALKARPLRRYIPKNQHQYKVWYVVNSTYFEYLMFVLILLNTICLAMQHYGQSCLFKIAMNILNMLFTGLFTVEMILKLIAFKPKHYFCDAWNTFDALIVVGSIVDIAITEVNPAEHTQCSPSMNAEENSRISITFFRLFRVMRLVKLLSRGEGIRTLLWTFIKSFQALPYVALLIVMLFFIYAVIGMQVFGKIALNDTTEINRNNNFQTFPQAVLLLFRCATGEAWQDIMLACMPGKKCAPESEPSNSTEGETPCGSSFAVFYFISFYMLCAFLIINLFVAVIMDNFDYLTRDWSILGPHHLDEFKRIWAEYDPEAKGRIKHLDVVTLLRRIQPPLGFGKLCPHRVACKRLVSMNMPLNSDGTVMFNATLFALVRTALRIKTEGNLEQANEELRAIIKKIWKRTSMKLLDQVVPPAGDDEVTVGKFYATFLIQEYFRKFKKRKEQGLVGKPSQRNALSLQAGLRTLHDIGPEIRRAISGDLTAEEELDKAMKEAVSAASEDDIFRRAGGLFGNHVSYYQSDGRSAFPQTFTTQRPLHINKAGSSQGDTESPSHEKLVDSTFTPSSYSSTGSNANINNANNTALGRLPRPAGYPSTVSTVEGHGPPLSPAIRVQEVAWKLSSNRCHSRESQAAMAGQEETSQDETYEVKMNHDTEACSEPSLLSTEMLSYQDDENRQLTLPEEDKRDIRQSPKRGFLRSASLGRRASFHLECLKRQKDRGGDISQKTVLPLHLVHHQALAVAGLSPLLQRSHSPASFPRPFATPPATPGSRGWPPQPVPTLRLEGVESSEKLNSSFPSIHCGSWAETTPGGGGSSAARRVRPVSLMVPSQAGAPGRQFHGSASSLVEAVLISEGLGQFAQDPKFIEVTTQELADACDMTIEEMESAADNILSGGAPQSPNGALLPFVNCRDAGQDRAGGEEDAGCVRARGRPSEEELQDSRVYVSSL
UniProt Q14524, 1-2016 isoform Q14524-4 V215L/S234P: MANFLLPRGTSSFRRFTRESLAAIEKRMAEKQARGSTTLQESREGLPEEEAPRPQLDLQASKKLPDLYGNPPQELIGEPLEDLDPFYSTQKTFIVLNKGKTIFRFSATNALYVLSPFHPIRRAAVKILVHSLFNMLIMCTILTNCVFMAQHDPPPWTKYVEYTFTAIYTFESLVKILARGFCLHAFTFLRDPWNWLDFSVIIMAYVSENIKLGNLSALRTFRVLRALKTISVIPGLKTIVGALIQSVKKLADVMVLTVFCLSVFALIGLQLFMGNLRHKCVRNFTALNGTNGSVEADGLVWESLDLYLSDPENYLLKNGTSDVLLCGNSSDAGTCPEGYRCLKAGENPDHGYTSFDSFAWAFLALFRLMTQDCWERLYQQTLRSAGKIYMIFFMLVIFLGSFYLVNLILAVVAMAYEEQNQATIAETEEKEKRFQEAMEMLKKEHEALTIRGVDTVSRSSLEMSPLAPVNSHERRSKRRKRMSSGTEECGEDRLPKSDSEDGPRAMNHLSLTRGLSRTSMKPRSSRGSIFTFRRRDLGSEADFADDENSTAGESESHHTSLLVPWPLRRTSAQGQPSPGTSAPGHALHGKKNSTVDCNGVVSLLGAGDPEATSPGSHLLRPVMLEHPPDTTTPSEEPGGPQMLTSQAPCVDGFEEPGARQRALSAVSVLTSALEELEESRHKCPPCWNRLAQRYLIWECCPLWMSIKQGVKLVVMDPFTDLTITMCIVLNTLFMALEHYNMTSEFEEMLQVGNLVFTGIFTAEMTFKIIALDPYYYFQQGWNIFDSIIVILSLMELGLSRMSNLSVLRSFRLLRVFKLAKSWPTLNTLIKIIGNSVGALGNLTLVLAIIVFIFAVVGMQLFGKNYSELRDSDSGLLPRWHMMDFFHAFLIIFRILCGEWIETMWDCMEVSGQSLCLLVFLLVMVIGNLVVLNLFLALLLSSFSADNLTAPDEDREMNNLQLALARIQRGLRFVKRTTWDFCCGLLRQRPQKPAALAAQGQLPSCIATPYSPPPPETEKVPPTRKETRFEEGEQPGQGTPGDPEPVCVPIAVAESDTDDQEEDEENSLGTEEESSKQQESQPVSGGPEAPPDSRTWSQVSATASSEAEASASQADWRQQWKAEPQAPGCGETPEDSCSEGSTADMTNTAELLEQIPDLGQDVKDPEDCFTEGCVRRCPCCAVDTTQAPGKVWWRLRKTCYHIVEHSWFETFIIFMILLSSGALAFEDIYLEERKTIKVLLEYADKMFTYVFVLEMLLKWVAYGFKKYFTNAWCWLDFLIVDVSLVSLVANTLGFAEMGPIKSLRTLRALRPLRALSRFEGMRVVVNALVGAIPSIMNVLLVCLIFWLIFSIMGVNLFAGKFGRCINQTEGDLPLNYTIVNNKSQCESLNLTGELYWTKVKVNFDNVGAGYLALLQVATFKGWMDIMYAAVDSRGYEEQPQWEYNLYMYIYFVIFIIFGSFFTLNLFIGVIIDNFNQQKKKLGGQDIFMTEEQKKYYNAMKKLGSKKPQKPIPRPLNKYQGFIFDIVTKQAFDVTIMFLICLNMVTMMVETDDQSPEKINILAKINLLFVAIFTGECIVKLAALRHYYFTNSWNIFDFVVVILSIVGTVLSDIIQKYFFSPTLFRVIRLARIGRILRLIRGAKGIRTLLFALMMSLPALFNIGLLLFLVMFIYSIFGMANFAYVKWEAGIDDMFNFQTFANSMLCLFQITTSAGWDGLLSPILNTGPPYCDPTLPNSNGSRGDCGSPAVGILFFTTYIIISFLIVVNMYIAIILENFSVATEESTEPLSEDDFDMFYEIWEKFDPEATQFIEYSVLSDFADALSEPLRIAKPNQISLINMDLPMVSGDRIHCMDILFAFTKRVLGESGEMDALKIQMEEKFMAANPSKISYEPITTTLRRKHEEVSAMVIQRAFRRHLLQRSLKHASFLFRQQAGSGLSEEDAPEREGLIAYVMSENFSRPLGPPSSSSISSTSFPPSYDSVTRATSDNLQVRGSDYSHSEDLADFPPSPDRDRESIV

pIC50: −log10 of the molar value.

Data set [1] addresses Cav1.2 (Homo sapiens, UniProt Q13936). The settings on record: Brown dataset.
Data set [2] deals with Nav1.5 (Homo sapiens, UniProt Q14524).
Wherever CAV1.2 max inhib is given: test concentration or dose not given here.
Wherever NAV1.5 max inhib is given: test concentration or dose not given here.

In the case of `COc1cc2c(cc1OC)C(=O)C(CC1CCN(Cc3ccccc3)CC1)C2` (centres unmarked) [donepezil], the CAV1.2 max inhib in data set [1] is reported as 55.7. Moreover, in data set [1] (read-out: CAV1.2 IC50), the pIC50 was 4.46. Also, the NAV1.5 max inhib in data set [2] is on record as 48.9.
Take `COC(=O)C1=C(C)NC(C)=C(C(=O)OC)C1c1ccccc1[N+](=O)[O-]` [nifedipine]: the CAV1.2 max inhib in data set [1] is on record as 88.3. The NAV1.5 max inhib in data set [2] is given as 54.1.
